Consider 58 compounds from PubChem BioAssay AID2685 (National Center for Advancing Translational Sciences (NCATS), 2010).

This assay in a line: qHTS Assay for Lipid Storage Modulators in Drosophila S3 Cells.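 As to cell number change: cells counted by Cell Tracker Red CMTPX staining in the red channel.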 The following applies: BODIPY lipid droplet fluorescence, 18-24 h; for cell number change: measured here: cell count max response, cells fed with added oleic acid. Put shortly:
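Drosophila S3 cells loaded with oleic acid (400 uM, as added) and compounds at several concentrations; lipid droplets imaged by 488-nm laser-scanning cytometry, 500–530 nm intensity and object ratio to cell channel. Percent activity normalized to 20 uM Triacsin C.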

[1] abbreviates: measured here: lipid fluorescence (Fed channel) AC50, cells fed with added oleic acid.
The mark [2] stands for this setting: measured here: cell number channel AC50, cells fed with added oleic acid.

This is one part of the list. Shown are side measurements of this screen, not its main read-out; they come without a call. The list favours compounds with an active or inconclusive main result. The note in brackets gives the kind of curve behind each potency; many fits are weak.

For the compound `CC(C)N(CCNC(=O)c1ccc(NC2=NC3CS(=O)(=O)CC3S2)cc1)Cc1ccco1` (stereo not drawn), the cell number change came to 8.34%. Besides, the AC50 under setting [1] was 29.1 µM [rising, single point].

Consider `CCc1ccc(-c2cc(C)no2)cc1S(=O)(=O)N1CCN(c2ccc(F)cc2)CC1`, for which the cell number change is 13.1%. Moreover, under setting [1], the AC50 was 4.11 µM [rising, full curve].

On to `COc1cc(CN(C)C(C)C(=O)Nc2ccc([N+](=O)[O-])cc2Cl)ccc1OC(F)F` (stereo not drawn), for which the cell number change was -20%. For the same compound, the AC50 under setting [1] was 29.1 µM [rising, single point].

In the case of `Cc1cc(C)nc(OC(=O)c2ccc(Cl)cc2Cl)n1`, the cell number change is -7.69%. Moreover, under setting [1], the AC50 was 0.00461 µM [falling, full curve, poor fit].

As for `OC(Cn1nnc2ccccc21)Cn1c(C(F)(F)F)nc2ccccc21` (stereo not drawn), the cell number change was -25.5%. Further, the half-maximal activity concentration (AC50) under setting [1] is 29.1 µM [falling, single point].

For `O=C(CCCc1ccccc1)Nc1ccccc1[N+](=O)[O-]`, the cell number change worked out at 8.41%.

Take `Cc1ccc(S(=O)(=O)NCCSc2nnnn2-c2ccc(C(N)=O)cc2)cc1`: the cell number change was 42%. Under setting [2], the concentration at half-maximal activity (AC50) was 0.651 µM [rising, partial curve].

Take `Cc1ccccc1Cn1ccc(=NCc2ccccc2)cc1`: the cell number change is -33.9%. Also, the AC50 under setting [1] is 29.1 µM [falling, single point].

In the case of `Cc1cc(OC(F)F)ccc1NC(=O)Nc1ccc([N+](=O)[O-])cc1`, the cell number change is -45.1%. In addition, the AC50 under setting [2] is 29.1 µM [falling, single point]. Also, the concentration at half-maximal activity (AC50) under setting [1] is 23.1 µM [falling, single point].

With `N#Cc1c(NC(=O)CCCl)sc2c1CCCCC2`, the cell number change was found to be 16.1%.

As to `CC1Sc2ccc(S(=O)(=O)N3CCC(C(=O)NCc4ccco4)CC3)cc2NC1=O` (stereo not drawn), the cell number change came to 14.4%. Besides, the AC50 under setting [1] was 0.58 µM [rising, single point].

As for `Cc1occc1C(=O)NCc1nc(-c2ccccc2)no1`, the cell number change was -9.21%. For the same compound, the concentration at half-maximal activity (AC50) under setting [1] was 5.62 µM [falling, single point].

As for `Cc1ccc([N+](=O)[O-])cc1NC(=O)CSc1n[nH]c(-c2cccnc2)n1`, the cell number change turned out to be 23%. In addition, under setting [2], the AC50 is 0.13 µM [rising, full curve, poor fit]. Further, the AC50 under setting [1] is 0.651 µM [rising, partial curve, poor fit].

`Cc1cccc(NC(=O)COc2ccc3oc4c(c3c2)CCCC4)n1`: the cell number change was found to be 4.57%. In addition, the concentration at half-maximal activity (AC50) under setting [1] is 13 µM [rising, partial curve].

As to `CC1=C(C(=O)Nc2ccccc2C(=O)N2CCCCC2)SCCO1`, the cell number change is -8.73%. In addition, the AC50 under setting [1] was 29.1 µM [falling, single point].

On to `O=CN1CCN(C(=O)c2ccccc2F)CC1`, for which the cell number change is -1.62%. Besides, under setting [1], the AC50 is 6.51 µM [rising, single point].

For the compound `O=C(NCCc1ccc(Cl)cc1)c1ccc2nc[nH]c2c1`, the cell number change is 191%. For the same compound, under setting [2], the AC50 is 0.58 µM [rising, single point]. The AC50 under setting [1] was 18.4 µM [rising, partial curve].

For `O=C(O)c1ccccc1C(=O)c1cccc2ccccc12`, the cell number change amounted to 72.1%. Also, under setting [2], the AC50 is 18.4 µM [rising, partial curve].

With `COc1ccccc1Nc1ncc(-c2cccs2)s1`, the cell number change was found to be 3.66%. For the same compound, the AC50 under setting [1] is 16.4 µM [falling, single point].

Turning to `N#Cc1ccc(NC(=O)COC(=O)C2Cc3ccccc3CN2C(=O)c2ccccc2)cc1` (stereo not drawn), the cell number change came out at 10.8%. In addition, under setting [1], the AC50 is 1.16 µM [rising, partial curve].

`Cc1cc(C)c(C(=O)CN2C(=O)NC3(CCC(C)CC3)C2=O)cc1C` (stereo not drawn): the cell number change worked out at 21.2%. The AC50 under setting [1] is 29.1 µM [rising, partial curve, poor fit].

Consider `Cc1nnc(SCC(=O)Nc2sc3c(c2C#N)CCCC3)[nH]c1=O`, for which the cell number change worked out at 18.7%.

On to `Cc1c([N+](=O)[O-])cc(C(=O)Nc2ccc(Cc3ccncc3)cc2)cc1[N+](=O)[O-]`, for which the cell number change is 50.2%. For the same compound, the AC50 under setting [2] is 18.4 µM [rising, partial curve]. Under setting [1], the AC50 was 29.1 µM [rising, single point].

In the case of `COc1ccc(NC(=O)c2cc(S(=O)(=O)N(Cc3ccccc3)c3ccccc3)ccc2Cl)cn1`, the cell number change turned out to be 1.3%. In addition, the AC50 under setting [1] is 0.731 µM [rising, single point].

In the case of `CCOC(=O)c1cnc(-n2[nH]c(C)c(Cc3ccccc3)c2=O)[nH]c1=O`, the cell number change was -65.5%. Also, the AC50 under setting [2] is 1.46 µM [falling, partial curve]. Under setting [1], the AC50 is 0.461 µM [falling, partial curve].

Regarding `CCOC(=O)c1ccc(NC(=O)CCNc2c(N3CCCC3)c(=O)c2=O)cc1`, the cell number change came out at 11.4%.

As for `Cn1c(=O)[nH]c(=O)c2c1nc(CN1CCN(Cc3ccccc3)CC1)n2CC(N)=O`, the cell number change was -128%. In addition, the AC50 under setting [2] is 32.6 µM [falling, partial curve]. Besides, the AC50 under setting [1] is 7.31 µM [falling, partial curve].

As for `O=C(Cn1[nH]c(=O)c2ccccc2c1=O)OCC(=O)c1ccc(F)cc1`, the cell number change is -8.04%. Further, the AC50 under setting [1] is 2.06 µM [rising, full curve].

On to `Cc1c(C(=O)c2ccc(F)cc2F)c2ccccn2c1CCC#N`, for which the cell number change was -18.1%. The AC50 under setting [1] is 6.51 µM [rising, single point].

`O=c1ccsn1Cc1ccccc1`: the cell number change is -78.4%. The concentration at half-maximal activity (AC50) under setting [2] was 32.6 µM [falling, partial curve]. For the same compound, the AC50 under setting [1] is 29.1 µM [falling, partial curve, poor fit].

For `CC(C)(C)n1nc2c(c1NC(=O)c1ccccc1F)CS(=O)C2` (stereo not drawn), the cell number change is 42.2%. Moreover, the AC50 under setting [2] was 29.1 µM [rising, single point].

Consider `Cc1csc2ncnc(NC3CCN(Cc4ccccc4)CC3)c12`, for which the cell number change is -34.2%. In addition, the AC50 under setting [2] was 14.6 µM [falling, single point]. The AC50 under setting [1] is 0.146 µM [falling, full curve, poor fit].

As for `O=C(COC(=O)C(Cc1ccccc1)NC(=O)c1ccc(Cl)cc1)c1ccc(Cl)cc1` (stereo not drawn), the cell number change is 0.114%. The half-maximal activity concentration (AC50) under setting [1] was 0.651 µM [falling, single point].

Take `CC(=O)c1ccc(NC(=O)C2CC(=O)N(Cc3ccccc3)C2)cc1` (stereo not drawn): the cell number change came to 47.3%. The AC50 under setting [2] was 16.4 µM [rising, single point]. In addition, the AC50 under setting [1] is 3.26 µM [falling, partial curve].

As to `CCOC(=O)Nc1ccc(S(=O)(=O)Nc2cc(C)nc(C)n2)cc1`, the cell number change was -33.8%. Moreover, the half-maximal activity concentration (AC50) under setting [2] is 0.103 µM [falling, full curve]. Also, the half-maximal activity concentration (AC50) under setting [1] was 9.2 µM [falling, partial curve].

For the compound `O=C1CCc2cc(S(=O)(=O)N3CCC(C(=O)NCCC4=CCCCC4)CC3)ccc2N1`, the cell number change was 18.4%. In addition, under setting [1], the AC50 is 2.91 µM [rising, partial curve].

For the compound `Cn1nc(C(=O)NCc2ccc(F)cc2)cc1C(=O)NCc1ccc(F)cc1`, the AC50 under setting [2] is 6.51 µM [rising, single point].

As to `COC(=O)c1cccc(NC(=S)NCc2ccco2)c1`, the cell number change came out at 16.6%. In addition, the AC50 under setting [2] is 0.082 µM [rising, full curve, poor fit]. For the same compound, the AC50 under setting [1] is 0.58 µM [falling, single point].

For `O=C(c1ccco1)N1CCN(S(=O)(=O)c2ccc3c(c2)CCN3C(=O)C2CCC2)CC1`, the cell number change is -26.4%. Under setting [1], the half-maximal activity concentration (AC50) was 14.6 µM [falling, single point].

Consider `Cc1ccc(-c2c(C(=O)N/N=C/c3ccc4c(c3)OCO4)nnn2-c2nonc2N)cc1`, for which the cell number change stood at 6.42%. For the same compound, the AC50 under setting [1] was 29.1 µM [rising, single point].

Turning to `S=c1[nH]nc(-c2cc(-c3ccco3)[nH]n2)n1-c1ccccc1Cl`, the cell number change amounted to 11.9%. For the same compound, the AC50 under setting [1] is 25.9 µM [rising, partial curve, poor fit].

For the compound `CC(=O)Nc1nc(C)c(-c2csc(Nc3ccc(O)cc3)n2)s1`, the cell number change is -64.9%. Moreover, the AC50 under setting [2] was 29.1 µM [falling, single point]. Moreover, under setting [1], the AC50 is 29.1 µM [falling, single point].

For the compound `COc1cc(N)c(Cl)cc1C(=O)OC(C)C(=O)Nc1cccc(S(=O)(=O)N2CCOCC2)c1` (stereo not drawn), the cell number change is -10.7%.

`CCCCn1cnc2sc3c(c2c1=N)CCCC3`: the cell number change is -13.2%. Further, under setting [2], the AC50 is 0.0058 µM [falling, full curve, poor fit].

`COC(C[C@H](O)C[C@@H](O)COCc1ccccc1)OC`: the cell number change was 2.46%. In addition, the AC50 under setting [1] is 0.259 µM [falling, full curve, poor fit].

For the compound `Cc1ccc(C)c(NC2=C(Cl)C(=O)OC2OC(=O)c2ccco2)c1` (stereo not drawn), the cell number change was -20%. For the same compound, under setting [2], the AC50 is 0.82 µM [falling, full curve, poor fit]. The AC50 under setting [1] is 29.1 µM [rising, partial curve, poor fit].

Consider `COc1cc(C(=O)Nc2cccc(C)c2C)c(Br)c(OC)c1OC`, for which the cell number change was 31.6%. The AC50 under setting [2] was 18.4 µM [rising, single point].

In the case of `Cc1occc1-c1nnc(SCC(=O)N2CCCC(C)C2)o1` (stereo not drawn), the cell number change is -2.8%. The AC50 under setting [2] was 2.91 µM [rising, partial curve, poor fit].

Turning to `CCOC(=O)c1ccccc1NC(=O)c1ccc(F)cc1`, the cell number change was -1.21%. Moreover, the AC50 under setting [1] was 7.31 µM [rising, partial curve].

For `COc1ccccc1/C=N/N(C(C)=O)c1nc(-c2ccc(F)cc2)cs1`, the cell number change was -22.6%.

For the compound `NS(=O)(=O)c1ccc(CNC(=O)CCCSc2ccccc2)cc1`, the cell number change worked out at 10.3%.

In the case of `COC(=O)C1=C(C)N(Cc2ccccc2)C(=NCCc2c[nH]c3ccccc23)N[C@H]1c1cccc(C(F)(F)F)c1`, the cell number change was -0.291%. Under setting [1], the AC50 was 29.1 µM [falling, single point].

In the case of `C=CCn1c(-c2csc3ccccc23)n[nH]c1=S`, the concentration at half-maximal activity (AC50) under setting [1] is 1.64 µM [rising, partial curve].

`O=C(COC(=O)c1cc(=O)c2ccccc2o1)Nc1c(F)c(F)c(F)c(F)c1F`: the AC50 runs as follows: under setting [2], 0.146 µM [rising, full curve, poor fit]; under setting [1], 6.51 µM [rising, single point].

For the compound `Cc1ccc(C)c(NC(=O)c2ccccc2Sc2ccc([N+](=O)[O-])cc2Cl)c1`, the cell number change came to 9.05%. In addition, the AC50 under setting [1] is 23.1 µM [rising, single point].

For the compound `Cc1ccc(/C=N/Nc2nnc(Cl)c3ccccc23)cc1`, the cell number change was 27%. Also, under setting [1], the half-maximal activity concentration (AC50) is 1.84 µM [rising, partial curve].

For the compound `Cc1ccc(Cn2nnc(C(=O)Nc3cccc(C)c3C)c2N)cc1`, the cell number change is 22.6%.

For `COC(=O)c1c(C)[nH]c(C(=O)OCC(=O)NC(C)(C)C)c1C`, the cell number change was 21.8%.
